Measured values published in paper PMC3843111.
No constants are given. Whether binding was seen depends on the method and setting. Binding seen in cells or lysates may run through a third protein. Some results given as binding are weak or reduced against the parent protein; the word gives no strength.

Sequences of proteins named here, by UniProt entry; tags and fusion partners are left off.
UniProt Q8CHK4: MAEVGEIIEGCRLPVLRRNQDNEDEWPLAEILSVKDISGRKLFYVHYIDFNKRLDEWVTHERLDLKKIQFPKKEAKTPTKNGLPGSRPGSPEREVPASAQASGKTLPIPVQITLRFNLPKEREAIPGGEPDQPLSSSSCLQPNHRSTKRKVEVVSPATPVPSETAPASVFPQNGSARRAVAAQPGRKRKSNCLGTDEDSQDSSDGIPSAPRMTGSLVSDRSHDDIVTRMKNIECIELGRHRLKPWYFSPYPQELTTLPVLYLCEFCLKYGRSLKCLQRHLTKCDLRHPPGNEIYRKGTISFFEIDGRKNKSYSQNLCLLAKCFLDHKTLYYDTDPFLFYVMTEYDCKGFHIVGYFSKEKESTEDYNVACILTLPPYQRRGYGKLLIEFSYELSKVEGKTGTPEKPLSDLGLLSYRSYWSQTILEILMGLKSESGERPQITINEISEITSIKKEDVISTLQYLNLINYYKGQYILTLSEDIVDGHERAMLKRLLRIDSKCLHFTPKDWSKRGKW
UniProt Q9JI44: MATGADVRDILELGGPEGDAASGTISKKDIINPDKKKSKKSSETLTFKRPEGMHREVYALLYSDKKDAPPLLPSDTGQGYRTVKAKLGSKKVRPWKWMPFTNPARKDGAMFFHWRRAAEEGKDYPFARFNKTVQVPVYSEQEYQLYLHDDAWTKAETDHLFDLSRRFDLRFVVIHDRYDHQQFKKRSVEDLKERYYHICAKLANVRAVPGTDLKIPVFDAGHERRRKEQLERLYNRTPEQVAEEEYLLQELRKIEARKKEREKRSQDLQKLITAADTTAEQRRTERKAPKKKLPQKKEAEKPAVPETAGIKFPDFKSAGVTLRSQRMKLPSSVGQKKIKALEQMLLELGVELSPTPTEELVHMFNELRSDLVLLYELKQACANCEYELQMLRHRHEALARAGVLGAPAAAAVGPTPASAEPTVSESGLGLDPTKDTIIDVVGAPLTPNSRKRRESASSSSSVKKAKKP

Legend:
[1] = target: Tip60-H3F (Tip60 with a C-terminal 6-histidine-3-FLAG tag, from the endogenous gene) in ESCs (mouse (endogenous in ESCs)) (UniProt Q8CHK4); assay: co-IP; Tip60-H3F immunoprecipitated with anti-FLAG (FLAG-M2 Agarose) from nuclear extracts (ESCs; NSCs), Western blot; IP buffer 50 mM Tris-HCl pH7.4, 250 mM NaCl, 0.1% Triton X-100, overnight at 4°C; also with DNase I or ethidium bromide, with high-salt washes, and with five additional washes with or without 10 uM tubastatin A
[2] = target: Tip60-H3F (Tip60 with a C-terminal 6-histidine-3-FLAG tag, from the endogenous gene) in ESCs (mouse (endogenous in ESCs)) (UniProt Q8CHK4); assay: co-IP; Tip60 complexes purified (FLAG-M2 Agarose, then TALON Agarose) from nuclear extracts of Tip60-H3F ESCs or MEFs, Western blot

binding [1]: binds
binding [2]: binds
Substance: DNA methyltransferase 1-associated protein 1 (from UniProt Q9JI44 1-468)
